# Data source: PubChem BioAssay AID686938 (Drosophila RNAi Screening Center, 2013)
# Aim: 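Looking for CRAC channel components and the factors controlling them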 (primary screen)
# Cell system: Drosophila S2R+ cells
# Knock-down reagent: long dsRNA against Drosophila genes, about 0.25 µg dsRNA per well, roughly 10,000 cells
# Duration: 5 days of knock-down before the calcium assay
# Conditions: thapsigargin (SERCA pump blocker) to empty calcium stores; entry signal taken 4 min after adding it
# Measurement: 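Duplicate raw fluo-4 intensities per well from a plate reader, at rest and four minutes after thapsigargin emptied calcium stores; entry-to-rest ratio filled for only some wells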
# Scale: calcium entry signal: higher = stronger calcium signal after store depletion; resting calcium signal: higher = higher resting calcium signal
# Rule for the call: 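Hit if the duplicate-averaged plate z-score for entry over resting signal is under −3; wells with weak total dye signal (Fmax z < −2) or more than 5 off-targets removed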
# Meaning of the calls: active = strongly reduced calcium entry; inactive = no strong reduction
# The deposit covers about 23,000 reagents; this is a random part of those with a known target gene and a result. Of all reagents, 75 (0.33%) got an active call. 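Raw plate signals without normalisation; calls rest on plate z-scores that were not deposited; ratio present for only 364 wells.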 No sequences are given here. Not given: the dose of the treatment.
target,DRSC id,"calcium entry signal, replicate 1 (fluorescence units)","calcium entry signal, replicate 2 (fluorescence units)","resting calcium signal, replicate 1 (fluorescence units)","resting calcium signal, replicate 2 (fluorescence units)",outcome
CG13405,DRSC08310,3.27e7,4.26e7,1.65e7,1.80e7,inactive
Cadps,DRSC21057,5.14e7,4.56e7,2.38e7,1.95e7,inactive
Cadps,DRSC22200,3.88e7,6.62e7,1.84e7,3.07e7,inactive
CG34324,DRSC19502,3.89e7,5.35e7,1.98e7,2.57e7,inactive
CG34324,DRSC23241,3.80e7,3.65e7,1.80e7,1.68e7,inactive
CG13625,DRSC14627,3.18e7,3.40e7,1.92e7,1.84e7,inactive
CG10510,DRSC11614,4.45e7,4.55e7,1.94e7,2.94e7,inactive
Crz,DRSC16615,2.51e7,3.34e7,1.27e7,4.99e7,inactive
CG17440,DRSC18126,3.51e7,4.55e7,1.90e7,2.20e7,inactive
twr,DRSC12491,4.15e7,2.89e7,1.98e7,1.43e7,inactive
Acsx1R,DRSC14339,4.59e7,5.34e7,5.71e7,2.38e7,inactive
CG9135,DRSC03144,4.32e7,,2.52e7,,inactive
CD98hc,DRSC15453,4.73e7,3.28e7,2.15e7,1.54e7,inactive
PAPLA1,DRSC03095,4.72e7,,2.43e7,,inactive
PAPLA1,DRSC03096,2.81e7,4.63e7,1.41e7,2.00e7,inactive
Cortactin,DRSC16612,4.26e7,3.80e7,1.96e7,1.67e7,inactive
CG7724,DRSC10905,2.68e7,3.68e7,1.22e7,2.26e7,inactive
Top3alpha,DRSC03460,4.21e7,4.98e7,2.20e7,2.13e7,inactive
CG3222,DRSC10355,3.07e7,4.00e7,1.52e7,1.67e7,inactive
Lamtor4,DRSC08436,3.68e7,4.39e7,1.91e7,1.96e7,inactive
RpLP1,DRSC00783,1.97e7,2.64e7,1.16e7,1.24e7,inactive
RpLP1,DRSC22145,9.53e6,1.82e7,7.13e6,1.14e7,inactive
Ets98B,DRSC16666,2.73e7,2.68e7,1.42e7,1.36e7,inactive
CG8774,DRSC16445,3.98e7,5.32e7,1.62e7,2.15e7,inactive
CG30099,DRSC07039,5.51e7,5.30e7,2.19e7,2.57e7,inactive
Sdc,DRSC04654,4.43e7,5.85e7,2.18e7,2.31e7,inactive
CG30222,DRSC04125,3.53e7,4.35e7,1.58e7,1.71e7,inactive
CG30222,DRSC04262,5.90e7,5.19e7,2.91e7,2.20e7,inactive
CG34115,DRSC03840,3.40e7,5.12e7,1.46e7,1.99e7,inactive
CG3168,DRSC18287,3.44e7,3.67e7,1.52e7,1.60e7,inactive
msd5,DRSC08560,3.22e7,4.55e7,1.72e7,1.98e7,inactive
CG18343,DRSC06726,1.66e7,3.42e7,9.22e6,1.44e7,inactive
CG34376,DRSC14695,2.80e7,3.83e7,6.78e7,1.59e7,inactive
CG34376,DRSC14696,3.23e7,3.57e7,6.51e7,1.54e7,inactive
CG34376,DRSC14701,4.01e7,3.48e7,6.16e7,1.63e7,inactive
CG17801,DRSC15273,3.36e7,2.65e7,3.99e7,1.25e7,inactive
CAP,DRSC05215,2.41e7,3.42e7,1.79e7,1.30e7,inactive
CAP,DRSC06743,4.62e7,4.30e7,1.85e7,1.83e7,inactive
CAP,DRSC06744,3.70e7,3.11e7,1.66e7,1.38e7,inactive
CAP,DRSC06745,3.42e7,3.27e7,1.54e7,1.39e7,inactive
CAP,DRSC06846,3.35e7,3.23e7,1.47e7,1.26e7,inactive
IFT57,DRSC00720,3.28e7,3.66e7,1.67e7,1.69e7,inactive
CG2100,DRSC12303,3.10e7,3.70e7,1.35e7,1.51e7,inactive
Or98b,DRSC16775,3.27e7,5.44e7,1.69e7,2.52e7,inactive
Or98b,DRSC21751,3.76e7,4.35e7,1.96e7,1.90e7,inactive
swa,DRSC18842,3.46e7,3.43e7,1.65e7,1.61e7,inactive
ND-20L,DRSC15414,3.08e7,4.55e7,1.60e7,1.98e7,inactive
CG12851,DRSC04131,2.55e7,3.63e7,1.45e7,1.58e7,inactive
CG5281,DRSC15761,3.33e7,3.53e7,1.64e7,1.84e7,inactive
CG8245,DRSC04901,4.62e7,2.27e7,2.37e7,1.16e7,inactive
Pino,DRSC00038,2.12e7,2.23e7,1.37e7,1.32e7,inactive
Pino,DRSC00662,4.31e7,,2.41e7,,inactive
Ir40a,DRSC03732,3.81e7,5.21e7,1.92e7,2.13e7,inactive
Ir40a,DRSC03733,3.85e7,5.05e7,2.03e7,2.10e7,inactive
CG32855,DRSC13131,2.31e7,2.14e7,1.11e7,1.06e7,inactive
Arp6,DRSC19326,4.27e7,4.27e7,2.13e7,1.98e7,inactive
CG31698,DRSC22226,3.73e7,4.77e7,1.82e7,2.72e7,inactive
CG15423,DRSC00437,3.50e7,4.28e7,1.78e7,2.00e7,inactive

In a second layout: 5 of the entries above
target	DRSC id	calcium entry signal, replicate 1 (fluorescence units)	calcium entry signal, replicate 2 (fluorescence units)	resting calcium signal, replicate 1 (fluorescence units)	resting calcium signal, replicate 2 (fluorescence units)	outcome
Acsx1R	DRSC14339	4.59e7	5.34e7	5.71e7	2.38e7	inactive
CG9135	DRSC03144	4.32e7		2.52e7		inactive
CD98hc	DRSC15453	4.73e7	3.28e7	2.15e7	1.54e7	inactive
PAPLA1	DRSC03095	4.72e7		2.43e7		inactive
PAPLA1	DRSC03096	2.81e7	4.63e7	1.41e7	2.00e7	inactive
